PubChem BioAssay AID504808 – Drosophila RNAi Screening Center | 2011
In all, the deposit lists about 21,000 reagents; shown is a random part of those with a known target gene and a result. Over the whole deposit, 18 (0.084%) were called active. 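Raw counts without plate normalisation, one of two replicates; the ratio scores behind the calls were not deposited.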 A plus sign joins genes that one reagent is predicted to hit. Not given: the amount of reagent, the time to read-out.

- Screen: 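Genes whose loss lifts activity of an E2F-responsive reporter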 (primary screen)
- Cells: Drosophila S2 cells
- Knock-down reagent: long dsRNA against Drosophila genes
- Measurement: 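Dual luciferase plate measurements; E2F-specific signal taken as firefly over Renilla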
- Reading the numbers: E2F firefly: higher = more E2F reporter activity; Renilla normaliser: higher = more normaliser reporter signal
- Hit rule: 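Called active if the normalised E2F reporter went up by over 50%; the cutoff is arbitrary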

| Gene | PubChem SID | E2F firefly, rep 1 | Renilla normaliser, rep 1 | Call |
| --- | --- | --- | --- | --- |
| ranshi | SID104196356 | 1.44e5 | 6858 | inactive |
| CR14117 (pseudo) | SID104189913 | 1.55e5 | 8722 | inactive |
| Menl-2 + Menl-1 | SID104187261 | 1.57e5 | 5393 | inactive |
| Menl-2 + Menl-1 | SID104187262 | 1.42e5 | 4914 | inactive |
| CG43736 + CG33692 (retired record) | SID104198162 | 70850 | 4949 | inactive |
| CG43736 + CG33692 (retired record) | SID104198163 | 1.02e5 | 5443 | inactive |
| CG12589 | SID104192007 | 1.11e5 | 4949 | inactive |
| Mos (Mos oncogene) | SID104187050 | 93348 | 4105 | inactive |
| Ssb-c31a (Single stranded-binding protein c31A) | SID104183235 | 1.47e5 | 5185 | inactive |
| CG5327 | SID104186722 | 1.38e5 | 5042 | inactive |
| LpR2 (Lipophorin receptor 2) | SID104193518 | 92126 | 2622 | inactive |
| LpR2 (Lipophorin receptor 2) | SID104193520 | 88126 | 2891 | inactive |
| LpR2 (Lipophorin receptor 2) | SID104195447 | 1766 | 1000 | inactive |
| LpR2 (Lipophorin receptor 2) | SID104195450 | 83639 | 5012 | inactive |
| CG30110 | SID104185478 | 1.71e5 | 5368 | inactive |
| mTTF (mitochondrial transcription termination factor) | SID104181701 | 91770 | 4835 | inactive |

Records above whose gene name begins with C or c:
| Gene | PubChem SID | E2F firefly, rep 1 | Renilla normaliser, rep 1 | Call |
| --- | --- | --- | --- | --- |
| CR14117 (pseudo) | SID104189913 | 1.55e5 | 8722 | inactive |
| CG43736 + CG33692 (retired record) | SID104198162 | 70850 | 4949 | inactive |
| CG43736 + CG33692 (retired record) | SID104198163 | 1.02e5 | 5443 | inactive |
| CG12589 | SID104192007 | 1.11e5 | 4949 | inactive |
| CG5327 | SID104186722 | 1.38e5 | 5042 | inactive |
| CG30110 | SID104185478 | 1.71e5 | 5368 | inactive |

The listing continues:
| Gene | PubChem SID | E2F firefly, rep 1 | Renilla normaliser, rep 1 | Call |
| --- | --- | --- | --- | --- |
| Dnai2 (dynein, axonemal, intermediate chain 2) | SID104190367 | 1.07e5 | 3352 | inactive |
| CG12121 | SID104197608 | 1.16e5 | 5756 | inactive |
| fs(1)Ya (female sterile (1) Young arrest) | SID104198568 | 1471 | 892 | inactive |
| Taf3 (TBP-associated factor 3) | SID104196962 | 1425 | 840 | inactive |
| CG9270 | SID104182974 | 83602 | 3275 | inactive |
| vkg (viking) | SID104183424 | 1.37e5 | 4760 | inactive |
| rl (rolled) | SID104187625 | 91989 | 4083 | inactive |
| rl (rolled) | SID104200534 | 1.31e5 | 6619 | inactive |
| CG8170 | SID104186879 | 1.40e5 | 5278 | inactive |
| sav (salvador) | SID104194473 | 1.11e5 | 5536 | inactive |
| sav (salvador) | SID104194474 | 1.09e5 | 6170 | inactive |
| His3.3B (Histone H3.3B) | SID104197565 | 89086 | 6943 | inactive |
| His3.3B (Histone H3.3B) | SID104198465 | 45757 | 12293 | inactive |
| CG10064 | SID104189481 | 98228 | 4052 | inactive |
| CG32280 | SID104187816 | 1.24e5 | 4348 | inactive |
| tst + CG10375 | SID104194029 | 67048 | 2797 | inactive |
| CG30034 (retired record) | SID104185080 | 1.26e5 | 4812 | inactive |
| Trf5 (TBP-related factor 5) | SID104180204 | 1.73e5 | 5824 | inactive |
